The whole screen tested about 340,000 compounds, of which about 170 (0.05%) were called active. Inconclusive results, whose numbers are uncertain, are shown with a selection of clear calls. Calls follow the shape of the dose curve; as a rule, active = well fitted inhibition curve with a large enough effect in the signal ratio, with a control signal flat (not every such curve was filed as active); inconclusive = small, poorly fitted or top-dose-only effect, or effect the other way, or a change in a side signal; inactive = flat fitted curve, though single readings scatter; the % refers to the signal ratio. Potencies of inconclusive entries are doubtful fits and often do not repeat.
Experiment: qHTS Assay to Find Inhibitors of Chronic Active B-Cell Receptor Signaling;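 as to activity change, negative = inhibition: plate controls were basal doxycycline-induced cells for no effect and cells given 10 µM MG132 for full effect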
Settings: ABC-DLBCL IkBa-CBG/CBR reporter, luminescence ratio (green luciferase fused to IkBa over red control in TMD8 lymphoma cells), 4 h; activity change, negative = inhibition: at 46.1 µM (top of the series)
Procedure, shortened: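 TMD8 ABC-DLBCL cells carrying doxycycline-inducible green luciferase fused to IkappaBalpha plus unfused red luciferase were exposed to compounds (up to 46 uM) for 4 hrs at 37C. Activity came from the overlap-corrected green/red luminescence ratio.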
Potency is read from the fitted curve at half-maximal effect.

Compound | activity change, negative = inhibition | Potency
Cc1nn2c(NCc3ccccn3)cc(C(C)(C)C)nc2c1-c1ccccc1 | inactive | –
COc1ccc(NS(=O)(=O)c2ccc3oc(Nc4ccc5c(c4)OCCO5)nc3c2)cc1 | inconclusive: 5.79% | –
Cc1[nH]c2ccccc2c1CCN(Cc1cccs1)C(=S)Nc1ccccc1 | – | inconclusive: 22.4 µM [falling, single point]
COc1ccc(NC(=O)Cn2c(=O)oc3cc(S(=O)(=O)N4CCCC4)ccc32)cc1 | inactive | –
Cc1ccc2nc(NC(=O)CCn3c(=O)sc4ccccc43)sc2c1 | inconclusive: 21.1% | –
COc1ccc(S(=O)(=O)N2CCOC2CNC(=O)C(=O)NCCCc2ccccc2)cc1 (stereo not drawn) | inconclusive: 4.03% | –
CCCc1cc(C(=O)Nc2cc(Br)ccc2O)no1 | inconclusive: -25% | –
Cc1ccc(Oc2ccc(NC(=O)Cn3ccsc3=N)cc2)cc1 | inconclusive: 11.5% | –
COc1cccc(C(=O)O/N=C(\C)c2cnccn2)c1 | inconclusive: -11.7% | –
O=C(NC(=S)NN1CCCCC1c1cccnc1)c1ccc(Cl)cc1Cl (stereo not drawn) | inconclusive: -20.6% | –
O=S(=O)([O-])CCC[N+]1(CC#Cc2ccccc2)CCCCC1 | inconclusive: 16.9% | –
C=CCSc1nc(=O)n2cccc(C)c2n1 | inconclusive: -1.57% | –
O=C(c1ccccc1)[C@@H]1[C@@H]2C(=O)N(c3ccc(F)cc3)C(=O)[C@@H]2C2CCCN21 (stereo partly drawn) | – | inconclusive: 8.91 µM [falling, partial curve, poor fit]
CCOc1ccc(CN(C)c2nc(-c3cccnc3)nc3ccccc23)cc1OC | inconclusive: 25.2% | –
CCOCCCNC(=O)CN1C(=O)NC(Cc2c[nH]c3ccccc23)C1=O (stereo not drawn) | inactive | –
CC(Nc1ccc(Br)cn1)c1cc(Cl)ccc1O (stereo not drawn) | inconclusive: 4.8% | –
COc1ccc(S(=O)(=O)N(C)C[C@H]2Oc3c(NC(=O)C4CCCCC4)cccc3C(=O)N([C@H](C)CO)C[C@@H]2C)cc1 | inconclusive: 5.45% | –
CCOC(=O)c1c(Nc2ccc(Cl)cc2)sc(/C=C2\C=Nc3ccccc32)c1O | – | inconclusive: 2.59 µM [falling, full curve, poor fit]
CCN(C(=O)COc1ccccc1[N+](=O)[O-])C1CCS(=O)(=O)C1 (stereo not drawn) | – | inconclusive: 23.1 µM [falling, partial curve]
COc1cc2c(cc1OC)CN(CC(=O)Nc1ccccc1C(=O)NCc1ccccc1)CC2 | inactive | –
COc1ccccc1NC(=O)NCC1(N(C)C)CCCCC1 | inactive | –
Cn1c(=O)c2c(nc(CN3CCc4ccccc4C3)n2Cc2ccccc2F)n(C)c1=O | inconclusive: 0.226% | –
O=C(Nc1cc(Cl)cc(Cl)c1)c1cc(S(=O)(=O)N2CCc3ccccc3C2)ccc1F | inactive | –
Cn1cccc1-c1nc2ccc(NC(=O)c3ccco3)cc2[nH]1 | inconclusive: 4.17% | –
Cc1cc(C(=O)N=Nc2c(O)n(C(C)C)c3ccccc23)n[nH]1 | inconclusive: -0.547% | –
CCn1cc(C(=O)N2CCN(C3CCCCC3)CC2)c2cc(OC)c(OC)cc2c1=O | – | inconclusive: 32.6 µM [falling, partial curve, poor fit]
O=c1c2c(-c3ccc([N+](=O)[O-])cc3)ccnc2[nH]n1-c1ccccc1 | inconclusive: 7.44% | –

Part of the list above in another layout.
Compound	activity change, negative = inhibition	Potency
O=C(NC(=S)NN1CCCCC1c1cccnc1)c1ccc(Cl)cc1Cl (stereo not drawn)	inconclusive: -20.6%	–
C=CCSc1nc(=O)n2cccc(C)c2n1	inconclusive: -1.57%	–
COc1ccc(S(=O)(=O)N(C)C[C@H]2Oc3c(NC(=O)C4CCCCC4)cccc3C(=O)N([C@H](C)CO)C[C@@H]2C)cc1	inconclusive: 5.45%	–

(listing goes on)

Compound | activity change, negative = inhibition | Potency
Cc1ccc(OCCC(=O)OCC(=O)NC(=O)c2ccccc2)cc1 | inconclusive: 9.54% | –
Cc1cc(C)c(C)c(S(=O)(=O)N2CCN(CC(=O)Nc3sccc3C#N)CC2)c1C | inactive | –
Fc1ccc(-c2nnc(-c3ccc(Cl)cc3)o2)cc1 | inconclusive: 9.24% | –
COc1ccc(OCc2cccc(C(=O)Nc3ccc(CN4CCCCC4)cc3)c2)cc1 | – | inconclusive: 23.1 µM [falling, partial curve, poor fit]
CNC(=S)Nc1ccc(OC(F)(F)F)cc1 | inconclusive: 6.94% | –
O=C1c2cccc3c([N+](=O)[O-])ccc(c23)C(=O)N1c1ccc(Cl)cn1 | inactive | –
CCCN1C(=O)c2cc(C(=O)Nc3ccccc3OC)ccc2C1Nc1ccccc1OC (stereo not drawn) | inactive | –
Fc1ccccc1NC(=S)NNc1ncc(C(F)(F)F)cc1Cl | inactive | –
COc1ccccc1C1CC(=O)n2c(nc(-c3ccccc3)c2-c2ccccc2)S1 (stereo not drawn) | inconclusive: 1.89% | –
CC(=O)Nc1cccc(Oc2nc(C)cc(C)c2C#N)c1 | inconclusive: 24.2% | –
Cc1nn(C)cc1S(=O)(=O)NCc1ccc2c(c1)OCO2 | inactive | –
CCCn1nnc(NC(=O)/C=C/c2ccccc2)n1 | inconclusive: -2.39% | –
CCOC(=O)c1sc(Nc2ccc(Br)cc2)nc1C | inconclusive: 0.152% | –
CC(C)(C)c1ccc(C(=O)C2CCCN(C(=O)c3ccccn3)C2)cc1 (stereo not drawn) | inconclusive: 8.64% | –
Cc1ccc(OCCNC(=O)/C=C/c2ccccc2)cc1 | inconclusive: 11.9% | –
CN(C)C(=O)COc1ccc(C(=O)/C=C/c2cccnc2)cc1 | inconclusive: 4.97% | –
Cc1cc(C(=O)COc2ccc([N+](=O)[O-])cc2)c(C)n1C1CC1 | inconclusive: 0.892% | –
Cc1ccccc1NC(=O)C(=O)NCCCN1CCCC1=O | – | inconclusive: 2.91 µM [falling, full curve]
Cc1nccn1CCOc1ccccc1Cl | – | inconclusive: 35.5 µM [falling, single point]
C=C(C(=O)Oc1ccccc1C(C)(C)C)c1ccccc1 | inconclusive: -5.97% | –
CC(NC(=O)CSc1nnc(COc2ccccc2)o1)c1ccccc1 (stereo not drawn) | inconclusive: 8.13% | –
OCCCNc1ncnc2c1cnn2-c1ccc(Cl)cc1 | inconclusive: -27.4% | –
COC(=O)c1ccc(C(=O)OC)c(NC(=O)CSCC(=O)O)c1 | inconclusive: -0.137% | –
CCN1CCN(c2sc(S(C)(=O)=O)nc2S(=O)(=O)c2ccc(Cl)cc2)CC1 | – | inconclusive: 15.8 µM [falling, single point]
COc1ccc(/C(C)=C2/SC(=S)N(CCC(=O)O)C2=O)cc1 | – | inconclusive: 23.1 µM [falling, partial curve]
CC1(C)CC(=O)C(C2=NC(C)(C)Cc3ccccc32)=C(O)C1 | inconclusive: -15.6% | –
